Experimental data from doi:10.1101/2023.04.21.537819, “DNA damage-induced interaction between a lineage addiction oncogenic transcription factor and the MRN complex shapes a tissue-specific DNA Damage Response and cancer predisposition” (bioRxiv, 2023).
Results are given in words; binding and its absence hold for the method and conditions named. Some results given as binding are weak or reduced against the parent protein; the word gives no strength.

Amino acid sequences for entries named in this document (tags omitted).
UniProt Q92878: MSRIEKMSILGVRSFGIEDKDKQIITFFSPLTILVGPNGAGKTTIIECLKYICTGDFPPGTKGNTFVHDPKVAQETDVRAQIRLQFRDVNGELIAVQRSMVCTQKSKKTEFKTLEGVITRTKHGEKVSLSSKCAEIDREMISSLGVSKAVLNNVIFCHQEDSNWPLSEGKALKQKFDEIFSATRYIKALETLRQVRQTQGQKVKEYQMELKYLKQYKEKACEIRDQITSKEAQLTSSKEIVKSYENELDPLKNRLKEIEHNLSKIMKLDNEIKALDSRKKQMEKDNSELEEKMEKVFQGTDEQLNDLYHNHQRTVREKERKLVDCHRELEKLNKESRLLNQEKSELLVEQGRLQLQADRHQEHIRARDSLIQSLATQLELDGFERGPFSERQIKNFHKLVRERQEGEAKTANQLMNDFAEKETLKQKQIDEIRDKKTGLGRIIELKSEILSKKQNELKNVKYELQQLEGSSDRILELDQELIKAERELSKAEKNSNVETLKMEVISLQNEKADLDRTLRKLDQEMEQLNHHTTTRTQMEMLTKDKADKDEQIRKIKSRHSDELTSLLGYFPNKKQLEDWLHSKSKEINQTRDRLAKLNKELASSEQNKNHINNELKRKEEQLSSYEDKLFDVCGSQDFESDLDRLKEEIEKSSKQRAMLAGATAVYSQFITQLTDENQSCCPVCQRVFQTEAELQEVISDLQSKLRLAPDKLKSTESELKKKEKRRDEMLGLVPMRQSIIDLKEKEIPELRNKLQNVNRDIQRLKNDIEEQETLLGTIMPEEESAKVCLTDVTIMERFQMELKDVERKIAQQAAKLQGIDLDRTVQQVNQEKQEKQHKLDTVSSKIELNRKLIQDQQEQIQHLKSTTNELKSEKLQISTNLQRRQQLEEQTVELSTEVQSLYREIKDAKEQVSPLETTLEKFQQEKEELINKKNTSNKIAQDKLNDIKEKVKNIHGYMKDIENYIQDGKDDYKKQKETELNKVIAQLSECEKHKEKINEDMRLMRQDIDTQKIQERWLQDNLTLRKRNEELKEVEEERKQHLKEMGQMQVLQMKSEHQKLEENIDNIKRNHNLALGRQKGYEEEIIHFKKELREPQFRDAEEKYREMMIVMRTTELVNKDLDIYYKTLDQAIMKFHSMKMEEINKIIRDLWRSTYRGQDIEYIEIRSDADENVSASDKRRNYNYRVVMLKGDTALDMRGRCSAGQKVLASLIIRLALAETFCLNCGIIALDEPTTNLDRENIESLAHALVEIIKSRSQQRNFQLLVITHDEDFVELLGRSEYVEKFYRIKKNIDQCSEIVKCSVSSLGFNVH

T1: mCherry-LacR-MITF (human, UniProt O75030-9 1-419)
T1 construct: MITF, human; In the self-association test the second copy was MITF-GFP (pEGFP-C1-MITF, Ngeow et al. 2018) in place of mCherry-LacR; also called LacR-mCherry-MITF; MITF WT; source: U2OS-LacO#13 cells, transfected, in cells; not shown: mCherry-LacR, N-terminal, kept
T1 sequence (looked up): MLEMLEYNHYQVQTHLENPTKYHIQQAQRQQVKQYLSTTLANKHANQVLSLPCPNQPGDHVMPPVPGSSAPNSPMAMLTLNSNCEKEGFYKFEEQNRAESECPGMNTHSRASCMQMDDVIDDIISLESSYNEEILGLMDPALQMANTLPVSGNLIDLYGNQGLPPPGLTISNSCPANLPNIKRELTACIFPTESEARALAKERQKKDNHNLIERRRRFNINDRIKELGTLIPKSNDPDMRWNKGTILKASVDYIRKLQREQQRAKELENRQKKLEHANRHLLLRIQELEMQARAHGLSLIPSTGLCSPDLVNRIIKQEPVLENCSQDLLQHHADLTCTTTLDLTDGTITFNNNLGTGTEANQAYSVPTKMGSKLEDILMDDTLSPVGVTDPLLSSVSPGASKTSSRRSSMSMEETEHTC


Assays:
Test in all cases: LacR/LacO nuclear tethering assay; U2OS-LacO#13 cells transfected 24 h with an mCherry-LacR bait (tethered at the LacO array) and a GFP-tagged prey; fixed, confocal microscopy; ratio of GFP fluorescence inside the mCherry dot to the rest of the nucleus
mCherry-LacR-MITF = biological target: T1, mCherry-LacR-MITF
[1] = biological target: MITF-E318K (nuclear tethering assay) (human) (UniProt O75030)
[2] = biological target: MITF-S325A (nuclear tethering assay) (human) (UniProt O75030)
[3] = biological target: MITF-S325E (nuclear tethering assay) (human) (UniProt O75030)

Row | binding (mCherry-LacR-MITF) | binding [1] | binding [2] | binding [3] | Molecule
1 | binds |  |  |  | RAD50-GFP (from UniProt Q92878 1-1312)
2 |  | binds | binds weakly | binds | NBS1-GFP (natural protein, UniProt O60934 1-754, looked up, NBS1 (nibrin), component of the MRN complex; plasmid pcDNA3.1(+)-C-eGFP-NBS1 from GenScript; also called GFP-NBS1; pcDNA3.1(+)-C-eGFP-NBS1; source: U2OS-LacO#13 cells, transfected, in cells; not shown: eGFP, C-terminal, kept) MWKLLPAAGPAGGEPYRLLTGVEYVVGRKNCAILIENDQSISRNHAVLTANFSVTNLSQTDEIPVLTLKDNSKYGTFVNEEKMQNGFSRTLKSGDGITFGVFGSKFRIEYEPLVACSSCLDVSGKTALNQAILQLGGFTVNNWTEECTHLVMVSVKVTIKTICALICGRPIVKPEYFTEFLKAVESKKQPPQIESFYPPLDEPSIGSKNVDLSGRQERKQIFKGKTFIFLNAKQHKKLSSAVVFGGGEARLITEENEEEHNFFLAPGTCVVDTGITNSQTLIPDCQKKWIQSIMDMLQRQGLRPIPEAEIGLAVIFMTTKNYCDPQGHPSTGLKTTTPGPSLSQGVSVDEKLMPSAPVNTTTYVADTESEQADTWDLSERPKEIKVSKMEQKFRMLSQDAPTVKESCKTSSNNNSMVSNTLAKMRIPNYQLSPTKLPSINKSKDRASQQQQTNSIRNYFQPSTKKRERDEENQEMSSCKSARIETSCSLLEQTQPATPSLWKNKEQHLSENEPVDTNSDNNLFTDTDLKSIVKNSASKSHAAEKLRSNKKREMDDVAIEDEVLEQLFKDTKPELEIDVKVQKQEEDVNVRKRPRMDIETNDTFSDEAVPESSKISQENEIGKKRELKEDSLWSAKEISNNDKLQDDSEMLPKKLLLTEFRSLVIKNSTSRNPSGINDDYGQLKNFKKFKKVTYPGAGKLPHIIGGSDLIAHHARKNTELEEWLRQEMEVQNQHAKEESLADDLFRYNPYLKRRR
